Binding data for 1 substance are collected here from PMC12540828, “Fexofenadine protects against osteoarthritis by targeting Smad2 and STAT1 to enhance anabolism and binding cPLA2 to inhibit catabolism” (Cell Death Discovery, 2025).

Chains of the proteins cited; added tags and fusions are not shown.
UniProt P42224: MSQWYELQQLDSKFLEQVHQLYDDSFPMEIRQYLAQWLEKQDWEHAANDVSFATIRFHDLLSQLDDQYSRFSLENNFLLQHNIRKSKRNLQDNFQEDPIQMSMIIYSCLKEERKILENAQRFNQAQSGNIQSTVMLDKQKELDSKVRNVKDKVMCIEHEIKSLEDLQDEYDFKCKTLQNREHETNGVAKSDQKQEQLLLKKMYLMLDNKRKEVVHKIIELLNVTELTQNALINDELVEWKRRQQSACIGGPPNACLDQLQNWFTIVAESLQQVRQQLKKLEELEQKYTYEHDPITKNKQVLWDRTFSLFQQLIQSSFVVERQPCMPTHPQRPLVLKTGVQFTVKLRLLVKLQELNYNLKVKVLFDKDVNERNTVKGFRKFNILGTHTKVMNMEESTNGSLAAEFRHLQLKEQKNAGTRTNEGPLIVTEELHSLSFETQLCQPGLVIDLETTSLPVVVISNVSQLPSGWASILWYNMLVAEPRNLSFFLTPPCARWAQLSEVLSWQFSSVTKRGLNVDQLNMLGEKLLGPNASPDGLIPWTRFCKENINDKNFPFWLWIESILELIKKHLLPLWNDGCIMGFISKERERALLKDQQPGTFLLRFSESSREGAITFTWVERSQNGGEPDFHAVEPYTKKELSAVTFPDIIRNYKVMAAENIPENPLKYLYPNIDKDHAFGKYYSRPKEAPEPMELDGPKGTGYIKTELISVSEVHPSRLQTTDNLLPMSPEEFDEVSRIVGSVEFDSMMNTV

The assay concerns the target T1, Activin Receptor-Like Kinase 5 (ALK5) (human (endogenous in human chondrocytes)) (UniProt P36897).
T1 sequence: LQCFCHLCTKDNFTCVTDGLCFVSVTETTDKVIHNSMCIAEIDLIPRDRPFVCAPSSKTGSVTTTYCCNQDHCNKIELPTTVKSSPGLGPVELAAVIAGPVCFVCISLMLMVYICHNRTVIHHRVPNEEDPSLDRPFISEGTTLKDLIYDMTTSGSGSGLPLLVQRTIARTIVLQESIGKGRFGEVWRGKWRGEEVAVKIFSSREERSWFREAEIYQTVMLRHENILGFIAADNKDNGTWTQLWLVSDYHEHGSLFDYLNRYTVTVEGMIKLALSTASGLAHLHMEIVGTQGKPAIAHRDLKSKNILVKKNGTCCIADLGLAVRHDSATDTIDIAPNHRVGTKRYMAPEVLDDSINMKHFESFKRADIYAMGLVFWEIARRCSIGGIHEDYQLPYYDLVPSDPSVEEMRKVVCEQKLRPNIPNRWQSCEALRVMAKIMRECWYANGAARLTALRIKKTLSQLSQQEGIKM
In words: co-IP; human chondrocyte lysate (1 mg protein) incubated with anti-ALK5 antibody (4 ug) at 4 °C for 4-6 h, Protein A/G Sepharose beads, washed 4-6 times with lysis buffer, Western blot; without FFD. A general note: In western blotting, separated proteins are transferred to a membrane and probed.

No constants are given. Whether binding was seen depends on the method and setting. In cells and extracts the contact can be indirect. Some binding calls cover weakened binding; strength is not graded here.

In the case of “Signal Transducer and Activator of Transcription 1 (STAT1) (from UniProt P42224 1-750)”, the binding result is given as “binds”.
